Assay results from article doi:10.1101/2023.12.21.572796.
These are yes or no findings as the source states them, for the method shown. In cells and extracts the contact can be indirect. A result given as binding can be weak or reduced; the word gives no strength. Values belong to the binder of their own block, whether it stands above or below them.

Columns and labels:
[1] = molecular target: C-terminal domain of the CAMSA2147 CJIE1 H-fiber (tail fiber protein H) (CJIE1 prophage of C. jejuni CAMSA2147); experiment: pull-down
[2] = molecular target: C-terminal domain of the RM1221 CJIE1 H-fiber (tail fiber protein H) (CJIE1 prophage of C. jejuni RM1221); experiment: pull-down

binding [1]: binds | binding [2]: no binding
B1: major outer membrane protein (MOMP) of C. jejuni CAMSA2147 (receptor, UniProt P80672 23-424)
chain: TPLEEAIKDVDVSGVLRYRYDTGNFDKNFVNNSNLNNSKQDHKYRAQVNFSAAIADNFKAFVQFDYNAADGGYGANGIKNDQKGLFVRQLYLTYTNEDVATSVIAGKQQLNLIWTDNAIDGLVGTGVKVVNNSIDGLTLAAFAVDSFMAAEQGADLLEHSNISTTSNQAPFKVDSVGNLYGAAAVGSYDLAGGQFNPQLWLAYWDQVAFFYAVDAAYSTTIFDGINWTLEGAYLGNSLDSELDDKTHANGNLFALKGSIEVNGWDASLGGLYYGDKEKASTVVIEDQGNLGSLLAGEEIFYTTGSRLNGDTGRNIFGYVTGGYTFNETVRVGADFVYGGTKTEAANHLGGGKKLEAVARVDYKYSPKLNFSAFYSYVNLDQGVNTNESADHSTVRLQALYKF

binding [2]: binds
B2: major outer membrane protein (MOMP) of C. jejuni RM1221 (receptor, UniProt P80672 23-424)
chain: B1 chain
